# Assay results published in the supplement of paper PMC8728848.
# Some of the results follow.
# B1: Loc1 (Escherichia coli) (protein)
# chain: APCALTNVGEQRGTYILKPLSMKGNLTAEKIENTGNIIECTDLQETTNAIKVHFLTQNALKFKVGSRHYIINFPFEYDGKKIELPGKSSYNLEEMLSAINFTIPYSIASVSDSSNTADIFPGTPFPLLFEIEVSSCTGNNTNCNSVRFNYNLNTILQVNLMTHHHHHH
# How the values were obtained:
# Assay in all cases: glycan array binding signal (z-score within array); higher = stronger binding
# Settings in all cases: glycan notation: IUPAC condensed, linker removed
# [1] = biological target: Neu5Ac(a2-3)Gal(b1-3)GalNAc
# Summary of the method: (§1)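 Arrays were curated from the Consortium for Functional Glycomics database, 3228 in total, and kept only where the protein sequence was available. Binding is expressed as a within-array Z-score. This score was averaged across arrays of the same protein sequence at different concentrations or buffers and across linkers, and negative values can be read as non-binding.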
# [2] = biological target: Neu5Ac(a2-3)Gal(b1-3)GalNAc(b1-3)Gal(a1-4)Gal(b1-4)Glc
# Summary of the method: as §1
# [3] = biological target: Neu5Ac(a2-3)Gal(b1-3)GalNAc(b1-4)Gal(b1-4)Glc
# Summary of the method: as §1
# [4] = biological target: Neu5Ac(a2-3)Gal(b1-3)GalNAc(b1-4)[Neu5Ac(a2-3)]Gal(b1-4)Glc
# Summary of the method: as §1
# [5] = biological target: Neu5Ac(a2-3)Gal(b1-3)GalNAc(b1-4)[Neu5Ac(a2-8)Neu5Ac(a2-3)]Gal(b1-4)Glc
# Summary of the method: as §1
# [6] = biological target: Neu5Ac(a2-3)Gal(b1-3)GalNAc6S
# Summary of the method: as §1
# [7] = biological target: Neu5Ac(a2-3)Gal(b1-3)GlcNAc
# Summary of the method: as §1
# [8] = biological target: Neu5Ac(a2-3)Gal(b1-3)GlcNAc(b1-2)Man
# Summary of the method: as §1
# [9] = biological target: Neu5Ac(a2-3)Gal(b1-3)GlcNAc(b1-2)Man(a1-3)[GlcNAc(b1-4)][Neu5Ac(a2-3)Gal(b1-3)GlcNAc(b1-2)Man(a1-6)]Man(b1-4)GlcNAc(b1-4)GlcNAc
# Summary of the method: as §1
# [10] = biological target: Neu5Ac(a2-3)Gal(b1-3)GlcNAc(b1-2)Man(a1-3)[Neu5Ac(a2-3)Gal(b1-3)GlcNAc(b1-2)Man(a1-6)]Man(b1-4)GlcNAc(b1-4)GlcNAc
# Summary of the method: as §1
# [11] = biological target: Neu5Ac(a2-3)Gal(b1-3)GlcNAc(b1-2)[Neu5Ac(a2-3)Gal(b1-3)GlcNAc(b1-4)]Man(a1-6)[Neu5Ac(a2-3)Gal(b1-3)GlcNAc(b1-2)Man(a1-3)]Man(b1-4)GlcNAc(b1-4)GlcNAc
# Summary of the method: as §1
# [12] = biological target: Neu5Ac(a2-3)Gal(b1-3)GlcNAc(b1-3)Gal(b1-3)GlcNAc
# Summary of the method: as §1
# [13] = biological target: Neu5Ac(a2-3)Gal(b1-3)GlcNAc(b1-3)Gal(b1-4)GlcNAc
# Summary of the method: as §1
# [14] = biological target: Neu5Ac(a2-3)Gal(b1-3)GlcNAc(b1-3)GalNAc
# Summary of the method: as §1
# [15] = biological target: Neu5Ac(a2-3)Gal(b1-3)GlcNAc(b1-6)GalNAc
# Summary of the method: as §1
# [16] = biological target: Neu5Ac(a2-3)Gal(b1-3)GlcNAc6S
# Summary of the method: as §1
# [17] = biological target: Neu5Ac(a2-3)Gal(b1-3)[Fuc(a1-4)]GlcNAc
# Summary of the method: as §1
# [18] = biological target: Neu5Ac(a2-3)Gal(b1-3)[Fuc(a1-4)]GlcNAc(b1-3)Gal(b1-3)[Fuc(a1-4)]GlcNAc
# Summary of the method: as §1
# [19] = biological target: Neu5Ac(a2-3)Gal(b1-3)[Fuc(a1-4)]GlcNAc(b1-3)Gal(b1-4)[Fuc(a1-3)]GlcNAc
# Summary of the method: as §1
# [20] = biological target: Neu5Ac(a2-3)Gal(b1-3)[GlcNAc(b1-6)]GalNAc
# Summary of the method: as §1
# [21] = biological target: Neu5Ac(a2-3)Gal(b1-3)[Neu5Ac(a2-6)]GalNAc
# Summary of the method: as §1
# [22] = biological target: Neu5Ac(a2-3)Gal(b1-3)[Neu5Ac(a2-6)]GlcNAc(b1-3)[Fuc(a1-3)[Gal(b1-4)]GlcNAc(b1-6)]Gal(b1-4)Glc
# Summary of the method: as §1
# [23] = biological target: Neu5Ac(a2-3)Gal(b1-3)]Neu5Ac(a2-3)Gal(b1-4)]GlcNAc
# Summary of the method: as §1
# Neu5Ac(a2-3)Gal(b1-4)Glc = biological target: Neu5Ac(a2-3)Gal(b1-4)Glc
# Summary of the method: as §1
# [24] = biological target: Neu5Ac(a2-3)Gal(b1-4)GlcNAc
# Summary of the method: as §1
# [25] = biological target: Neu5Ac(a2-3)Gal(b1-4)GlcNAc(b1-2)Man
# Summary of the method: as §1
# [26] = biological target: Neu5Ac(a2-3)Gal(b1-4)GlcNAc(b1-2)Man(a1-3)[GlcNAc(b1-4)][Neu5Ac(a2-3)Gal(b1-4)GlcNAc(b1-2)Man(a1-6)]Man(b1-4)GlcNAc(b1-4)GlcNAc
# Summary of the method: as §1
# [27] = biological target: Neu5Ac(a2-3)Gal(b1-4)GlcNAc(b1-2)Man(a1-3)[Neu5Ac(a2-3)Gal(b1-4)GlcNAc(b1-2)Man(a1-6)]Man(b1-4)GlcNAc(b1-4)GlcNAc
# Summary of the method: as §1
# [28] = biological target: Neu5Ac(a2-3)Gal(b1-4)GlcNAc(b1-2)Man(a1-3)[Neu5Ac(a2-3)Gal(b1-4)GlcNAc(b1-2)Man(a1-6)]Man(b1-4)GlcNAc(b1-4)[Fuc(a1-6)]GlcNAc
# Summary of the method: as §1
# [29] = biological target: Neu5Ac(a2-3)Gal(b1-4)GlcNAc(b1-2)Man(a1-3)[Neu5Ac(a2-6)Gal(b1-4)GlcNAc(b1-2)Man(a1-6)]Man(b1-4)GlcNAc(b1-4)GlcNAc
# Summary of the method: as §1
# [30] = biological target: Neu5Ac(a2-3)Gal(b1-4)GlcNAc(b1-2)[Neu5Ac(a2-3)Gal(b1-4)GlcNAc(b1-4)]Man(a1-3)[GlcNAc(b1-4)][Neu5Ac(a2-3)Gal(b1-4)GlcNAc(b1-2)[Neu5Ac(a2-3)Gal(b1-4)GlcNAc(b1-6)]Man(a1-6)]Man(b1-4)GlcNAc(b1-4)GlcNAc
# Summary of the method: as §1
# [31] = biological target: Neu5Ac(a2-3)Gal(b1-4)GlcNAc(b1-2)[Neu5Ac(a2-3)Gal(b1-4)GlcNAc(b1-4)]Man(a1-3)[GlcNAc(b1-4)][Neu5Ac(a2-3)Gal(b1-4)GlcNAc(b1-4)Man(a1-6)]Man(b1-4)GlcNAc(b1-4)GlcNAc
# Summary of the method: as §1
# [32] = biological target: Neu5Ac(a2-3)Gal(b1-4)GlcNAc(b1-2)[Neu5Ac(a2-3)Gal(b1-4)GlcNAc(b1-6)]Man(a1-6)[Neu5Ac(a2-3)Gal(b1-4)GlcNAc(b1-2)Man(a1-3)][GlcNAc(b1-4)]Man(b1-4)GlcNAc(b1-4)GlcNAc
# Summary of the method: as §1
# [33] = biological target: Neu5Ac(a2-3)Gal(b1-4)GlcNAc(b1-3)Gal
# Summary of the method: as §1
# [34] = biological target: Neu5Ac(a2-3)Gal(b1-4)GlcNAc(b1-3)Gal(b1-3)GlcNAc
# Summary of the method: as §1
# [35] = biological target: Neu5Ac(a2-3)Gal(b1-4)GlcNAc(b1-3)Gal(b1-4)GlcNAc
# Summary of the method: as §1
# [36] = biological target: Neu5Ac(a2-3)Gal(b1-4)GlcNAc(b1-3)Gal(b1-4)GlcNAc(b1-2)Man(a1-3)[Neu5Ac(a2-3)Gal(b1-4)GlcNAc(b1-3)Gal(b1-4)GlcNAc(b1-2)Man(a1-6)]Man(b1-4)GlcNAc(b1-4)GlcNAc
# Summary of the method: as §1
# [37] = biological target: Neu5Ac(a2-3)Gal(b1-4)GlcNAc(b1-3)Gal(b1-4)GlcNAc(b1-3)Gal(b1-4)GlcNAc
# Summary of the method: as §1
# [38] = biological target: Neu5Ac(a2-3)Gal(b1-4)GlcNAc(b1-3)Gal(b1-4)GlcNAc(b1-3)Gal(b1-4)GlcNAc(b1-2)Man(a1-3)[Neu5Ac(a2-3)Gal(b1-4)GlcNAc(b1-3)Gal(b1-4)GlcNAc(b1-3)Gal(b1-4)GlcNAc(b1-2)Man(a1-6)]GalNAc
# Summary of the method: as §1
# [39] = biological target: Neu5Ac(a2-3)Gal(b1-4)GlcNAc(b1-3)Gal(b1-4)GlcNAc(b1-3)GalNAc
# Summary of the method: as §1
# [40] = biological target: Neu5Ac(a2-3)Gal(b1-4)GlcNAc(b1-3)Gal(b1-4)GlcNAc(b1-3)[Neu5Ac(a2-3)Gal(b1-4)GlcNAc(b1-3)Gal(b1-4)GlcNAc(b1-6)]GalNAc
# Summary of the method: as §1
# [41] = biological target: Neu5Ac(a2-3)Gal(b1-4)GlcNAc(b1-3)Gal(b1-4)GlcNAc(b1-6)[Gal(b1-3)]GalNAc
# Summary of the method: as §1
# [42] = biological target: Neu5Ac(a2-3)Gal(b1-4)GlcNAc(b1-3)Gal(b1-4)[Fuc(a1-3)]GlcNAc
# Summary of the method: as §1
# [43] = biological target: Neu5Ac(a2-3)Gal(b1-4)GlcNAc(b1-3)GalNAc
# Summary of the method: as §1
# [44] = biological target: Neu5Ac(a2-3)Gal(b1-4)GlcNAc(b1-3)[Neu5Ac(a2-3)Gal(b1-4)GlcNAc(b1-6)]GalNAc
# Summary of the method: as §1
binder,measurement,setting,value
B1,glycan array binding signal (z-score),[1],-0.478
same,glycan array binding signal (z-score),[2],-0.398
same,glycan array binding signal (z-score),[3],-0.149
same,glycan array binding signal (z-score),[4],-0.357
same,glycan array binding signal (z-score),[5],-0.945
same,glycan array binding signal (z-score),[6],-0.388
same,glycan array binding signal (z-score),[7],-0.838
same,glycan array binding signal (z-score),[8],-0.478
same,glycan array binding signal (z-score),[9],-0.595
same,glycan array binding signal (z-score),[10],0.212
same,glycan array binding signal (z-score),[11],0.502
same,glycan array binding signal (z-score),[12],-0.471
same,glycan array binding signal (z-score),[13],-0.29
same,glycan array binding signal (z-score),[14],-0.063
same,glycan array binding signal (z-score),[15],0.181
same,glycan array binding signal (z-score),[16],-0.26
same,glycan array binding signal (z-score),[17],0.062
same,glycan array binding signal (z-score),[18],0.472
same,glycan array binding signal (z-score),[19],-1.46
same,glycan array binding signal (z-score),[20],-0.26
same,glycan array binding signal (z-score),[21],-0.234
same,glycan array binding signal (z-score),[22],0.125
same,glycan array binding signal (z-score),[23],-0.521
same,glycan array binding signal (z-score),Neu5Ac(a2-3)Gal(b1-4)Glc,-0.786
same,glycan array binding signal (z-score),[24],-0.967
same,glycan array binding signal (z-score),[25],0.657
same,glycan array binding signal (z-score),[26],0.255
same,glycan array binding signal (z-score),[27],-0.611
same,glycan array binding signal (z-score),[28],-0.578
same,glycan array binding signal (z-score),[29],-0.166
same,glycan array binding signal (z-score),[30],0.298
same,glycan array binding signal (z-score),[31],-0.745
same,glycan array binding signal (z-score),[32],-0.322
same,glycan array binding signal (z-score),[33],-0.004
same,glycan array binding signal (z-score),[34],-0.763
same,glycan array binding signal (z-score),[35],0.155
same,glycan array binding signal (z-score),[36],0.087
same,glycan array binding signal (z-score),[37],-0.064
same,glycan array binding signal (z-score),[38],2.75
same,glycan array binding signal (z-score),[39],-0.089
same,glycan array binding signal (z-score),[40],-0.543
same,glycan array binding signal (z-score),[41],0.747
same,glycan array binding signal (z-score),[42],0.62
same,glycan array binding signal (z-score),[43],-0.098
same,glycan array binding signal (z-score),[44],-0.884

# 2 successive entries out of the list so far:
binder,measurement,setting,value
B1,glycan array binding signal (z-score),[9],-0.595
same,glycan array binding signal (z-score),[10],0.212
